Assay: Environmental performance scoring (persistence, bioaccumulation, final score)
Conditions: scale 0-100; for Persistence score: inorganic ingredient, half-life in water, sediment and soil from peer-reviewed literature, Table 1 and Table 3

For `[Zn+2]` [Zn^2+], the Persistence score was “zero”.

With `OCC(O)CO` [Glycerin] the Bioaccumulation score was 100 and the “Final Score (environmental performance score)” value (PBT score minus penalties, P 75%, T 25% weight) was 100.

In the case of `[O]=[Zn]` [zinc oxide], the Bioaccumulation score is reported as 100 and the Persistence score is reported as “zero”.
